Values quoted from earlier work, collected in PMC10003010, “A Unique In Vitro Assay to Investigate ABCB4 Transport Function” (International Journal of Molecular Sciences, 2023).
Like-named read-outs stand apart in the source and are kept apart here.

Key:
ABCB4 [1] = details: human primary hepatocyte assay; read-out: In Vitro Literature Data (IC50); cited from earlier work
ABCB4 [2] = details: read-out: In Vitro Literature Data (IC50); cited from earlier work

In the case of CCCCc1oc2ccccc2c1C(=O)c1cc(I)c(OCCN(CC)CC)c(I)c1 [amiodarone], the IC50 (ABCB4 [1]) is given as > 300 µM and the IC50 (ABCB4 [2]) is given as > 100 µM.
